Assay results reported in paper PMC10247930 (EJNMMI Research, 2023).

Assay: peptide made by a vendor (Fmoc solid-phase peptide synthesis; Rink amide MBHA resin; HATU)
Conditions: whole synthesis, UV220

For “PEPTIDE1{[DOTA].[APip].[dF].Q.W.A.V.G.H.[Sta].L.[am]}$$$$V2.0”, the “final HPLC purity” value was over 95%.

Some peptides are written in HELM: one residue between dots, names in brackets for other building blocks, links after the first $. The same purity stands for every peptide and may come from a single statement.
